Data taken from publication doi:10.1101/2020.05.09.085852 (bioRxiv, 2020).
Results are given in words; binding and its absence hold for the method and conditions named. A result given as binding can be weak or reduced; the word gives no strength. Tags and fused reporters may be left off the sequences shown.

Columns and labels:
[1] = biological target: T1, YueB (BACTH fusion) (B. subtilis 168) (UniProt O32101); test: two-hybrid
T1 sequence: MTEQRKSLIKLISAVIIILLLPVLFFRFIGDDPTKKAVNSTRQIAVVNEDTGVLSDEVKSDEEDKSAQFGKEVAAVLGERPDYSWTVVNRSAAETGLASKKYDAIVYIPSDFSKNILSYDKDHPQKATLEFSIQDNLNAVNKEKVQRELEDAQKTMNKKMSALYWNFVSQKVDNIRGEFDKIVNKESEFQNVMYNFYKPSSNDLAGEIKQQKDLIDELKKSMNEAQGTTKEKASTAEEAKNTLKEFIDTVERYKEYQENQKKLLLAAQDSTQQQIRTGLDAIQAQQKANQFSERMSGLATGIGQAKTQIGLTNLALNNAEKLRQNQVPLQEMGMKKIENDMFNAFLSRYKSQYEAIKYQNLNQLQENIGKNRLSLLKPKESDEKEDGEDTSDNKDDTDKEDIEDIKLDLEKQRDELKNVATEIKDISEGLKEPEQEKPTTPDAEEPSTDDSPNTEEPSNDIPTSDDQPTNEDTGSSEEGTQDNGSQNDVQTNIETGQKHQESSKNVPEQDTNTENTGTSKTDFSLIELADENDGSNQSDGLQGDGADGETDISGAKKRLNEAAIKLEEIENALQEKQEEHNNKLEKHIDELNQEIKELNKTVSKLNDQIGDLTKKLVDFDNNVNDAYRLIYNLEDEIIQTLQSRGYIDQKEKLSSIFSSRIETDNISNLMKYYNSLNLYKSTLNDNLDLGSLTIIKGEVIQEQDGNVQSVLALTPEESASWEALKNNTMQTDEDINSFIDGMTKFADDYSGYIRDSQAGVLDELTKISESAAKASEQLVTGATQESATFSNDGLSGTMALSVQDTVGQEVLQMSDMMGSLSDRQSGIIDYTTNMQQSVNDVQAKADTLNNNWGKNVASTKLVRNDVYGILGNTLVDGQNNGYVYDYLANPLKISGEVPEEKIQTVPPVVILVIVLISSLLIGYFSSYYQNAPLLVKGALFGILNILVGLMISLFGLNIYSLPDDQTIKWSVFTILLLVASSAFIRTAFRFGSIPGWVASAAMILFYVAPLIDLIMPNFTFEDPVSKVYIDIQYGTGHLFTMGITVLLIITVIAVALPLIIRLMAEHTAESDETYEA

[2] = biological target: T2, YukC (BACTH fusion) (B. subtilis 168) (UniProt P71070); test: two-hybrid
T2 sequence: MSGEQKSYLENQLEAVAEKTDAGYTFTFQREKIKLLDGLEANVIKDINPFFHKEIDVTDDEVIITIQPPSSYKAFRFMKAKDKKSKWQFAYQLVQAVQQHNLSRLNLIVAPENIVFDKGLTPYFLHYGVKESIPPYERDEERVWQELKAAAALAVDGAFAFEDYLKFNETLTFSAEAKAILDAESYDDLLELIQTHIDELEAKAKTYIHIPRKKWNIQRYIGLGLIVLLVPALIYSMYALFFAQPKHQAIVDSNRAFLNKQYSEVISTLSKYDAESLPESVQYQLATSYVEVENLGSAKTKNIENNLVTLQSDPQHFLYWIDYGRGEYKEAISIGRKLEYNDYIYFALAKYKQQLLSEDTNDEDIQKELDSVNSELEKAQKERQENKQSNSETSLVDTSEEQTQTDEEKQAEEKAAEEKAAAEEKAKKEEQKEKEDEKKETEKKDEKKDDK

Q: Which results are given for “YueBΔ31-817 (BACTH fusion) (from UniProt O32101)”?
A: binding [1]: binds; binding [2]: binds
